Measurements reported in PubChem BioAssay AID1347426 (Functional Genomics Laboratory (NCATS/FGL), 2020).
Among all 31,000 sequences or so, about 1,400 (4.5%) were called active.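 Rule for the calls: active = median seed-adjusted z-score above 1 or below -1; inactive = the rest.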 Some of the results follow.

Assay: Novel Modifiers of Survival Motor Neuron (SMN) Protein: Gene Identification via Genome-wide siRNA Screen;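 note: luminescence tracks full-length SMN protein made from the SMN2 reporter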
Settings: HEK293T SMN2-luciferase reporter, siRNA knockdown, 72 h; actives lie on both sides
How it was run: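 Luciferase signal, proportional to full-length SMN made from an SMN2 cDNA reporter in stable HEK293T cells, was read 72 h after siRNA reverse transfection. Values were expressed as MAD scores after non-targeting-control normalization and log10 conversion; seed analysis flagged off-targets.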
In the case of CCAACGAACAUGUACAACATT against CACNA2D3, the median seed-adjusted z-score is reported as inactive: 0.198. In the case of GGAUAACACUGUACAAGCUTT against PTPN4, the median seed-adjusted z-score is reported as inactive: -0.447. In the case of UUUGCUGUCUUGAACAUAATT against GIPC1, the median seed-adjusted z-score is reported as inactive: 0. For AAACAAAACUUGCACUUUATT against RASD1, the median seed-adjusted z-score was inactive: 0.674. In the case of GCCUGCAGGUGAAAUGGAATT against PLSCR4, the median seed-adjusted z-score is reported as inactive: -0.543. For CAACGAGAAUGGUAUACAATT against SMARCA1, the median seed-adjusted z-score was inactive: 0.6. In the case of AAAUCACUGCUUCAGAAUATT against MS4A5, the median seed-adjusted z-score is reported as inactive: 0.226. For GCAUCACACUCACAUCCCATT against DNASE2, the median seed-adjusted z-score was active: -1.23. With CCAGAAUGAUCAAGCAUUUTT against NEK7 the median seed-adjusted z-score was inactive: 0. With GCACUUGCAGGUUUUAAAUTT against LRTM1 the median seed-adjusted z-score was inactive: 0.492. With GGGUAGAUGACAAGGUGAATT against UCHL1 the median seed-adjusted z-score was inactive: -0.421. For GCAGCCCUGGGCUAAACAATT against HES6, the median seed-adjusted z-score was inactive: 0.71. With GAAAGAUCAUGGGAAGAAATT against RALBP1 the median seed-adjusted z-score was inactive: -0.0514. With GAGACCUAACUGUACGUGATT against TSG101 the median seed-adjusted z-score was active: 1.48. With GAAGAUUGGUUUUCGAUUATT against LIN9 the median seed-adjusted z-score was inactive: 0. For GCAGUUGCACUAUAAUGGATT against PTPN21, the median seed-adjusted z-score was inactive: 0. With GUUCAUCUUGAUUCACAAATT against NOC4L the median seed-adjusted z-score was inactive: -0.315. With GAGUCUGCUUUAAAGCGCATT against ZNF509 the median seed-adjusted z-score was inactive: 0. For AGGUGAACGAGAACUGGUATT against SORBS3, the median seed-adjusted z-score was inactive: 0.106. For CCACGUGUCCGGAAUAAAUTT against GLI4, the median seed-adjusted z-score was inactive: 0.0798. For “GGGUUUUUGCGCUUCAAAATT against GALNAC4S-6ST”, the median seed-adjusted z-score was inactive: 0.218. For GCCUACUUCAUUCAUCAUATT against KSR1, the median seed-adjusted z-score was inactive: 0.0873. With CAAUAUUGAGAGGAAAUCATT against PPP2CB the median seed-adjusted z-score was inactive: 0.486. In the case of CCAUCGUCAUCUCUGUGCATT against MAT1A, the median seed-adjusted z-score is reported as inactive: 0.501. For GCCUGGUAGUGACAGUAGATT against STAP1, the median seed-adjusted z-score was inactive: 0. For CGACUUACAGGACAGCAGATT against AMACR, the median seed-adjusted z-score was inactive: -0.591. In the case of CACCCAUCAUUCUUCAAGATT against SAAL1, the median seed-adjusted z-score is reported as inactive: 0.00224. In the case of GCACCUGGAAGGGAUGUCATT against PGAM2, the median seed-adjusted z-score is reported as inactive: -0.247. In the case of GGACUUACUAAAAGCUAAATT against CRKRS, the median seed-adjusted z-score is reported as active: -1.16. In the case of GAGUAGAAUUUAAGACAAATT against SOX8, the median seed-adjusted z-score is reported as inactive: 0.186. With GGGACCCGAUGUUCACUUUTT against LILRA4 the median seed-adjusted z-score was inactive: 0.109. For CGAUAAGGCGAAAAUCGAUTT against CHRNA3, the median seed-adjusted z-score was inactive: -0.359. With GCUACUUUAUAUACGGAAATT against IL15 the median seed-adjusted z-score was inactive: -0.139. For CAGAUGCAGCACUCACUUUTT against MMP17, the median seed-adjusted z-score was inactive: -0.653. For CCUCGGAUCCAUUCACGAATT against EPS15L1, the median seed-adjusted z-score was inactive: -0.0511. In the case of CUACUACAACCGCUGCUAUTT against WFIKKN1, the median seed-adjusted z-score is reported as inactive: 0. In the case of GGAGGUUAUCAGUGACGAATT against TUBB4, the median seed-adjusted z-score is reported as inactive: 0. With GGCUGAUUGUAGCUUGUUATT against CLIC2 the median seed-adjusted z-score was inactive: -0.0124. With GUUUGAUCUUGUUGACUAUTT against ASPH the median seed-adjusted z-score was inactive: 0.0199. For GGUUGGUACUGCUAAUAAATT against VCL, the median seed-adjusted z-score was inactive: 0. With CUCUCUCUCAGAUCACAAATT against GNB1 the median seed-adjusted z-score was inactive: -0.166. In the case of CUAACGAAGAUUCACCCAATT against ASPN, the median seed-adjusted z-score is reported as inactive: -0.0432. With CCCUUUCUAUGACCUCAGATT against DERL3 the median seed-adjusted z-score was inactive: 0.043. In the case of CCGGAGUUUUUGUUGAUAATT against ZEB2, the median seed-adjusted z-score is reported as inactive: 0.854. For GCAUCGGGAAUAAAAUUUATT against LSM2, the median seed-adjusted z-score was active: -1.48. In the case of GCCUGUGUGAGUCAGGAUATT against PRM3, the median seed-adjusted z-score is reported as inactive: 0.249. For GUACUUCUGGAAUAACGAATT against PPP2R5A, the median seed-adjusted z-score was inactive: 0.37. With AAGUGAACGUGGAUGCAGUTT against HBD the median seed-adjusted z-score was inactive: 0. For CAGCUUCAGGAGAAUGAAATT against PPP1CC, the median seed-adjusted z-score was inactive: -0.344. For GGAAGAGACUUGCUCAGUATT against MLF1, the median seed-adjusted z-score was inactive: 0.258. With CGGCGUAUCUUCACCAACATT against TAL1 the median seed-adjusted z-score was inactive: -0.165. In the case of GUAUGAAGGAUAUAGUUGATT against UGT1A6, the median seed-adjusted z-score is reported as inactive: -0.0939. With GCAUUGCCCUCUACGAUGUTT against DOCK8 the median seed-adjusted z-score was inactive: 0.243. For CAUACGAGGUAUUAUCAAATT against DNAJB7, the median seed-adjusted z-score was inactive: 0.684. In the case of AGCUGUCCCUCUUUGCUGUTT against TREX2, the median seed-adjusted z-score is reported as inactive: -0.918. With UGAGAGCCCUAUUCCAGUATT against UBASH3A the median seed-adjusted z-score was active: -1.1. For GAUGUUAACCAGUAGAGCATT against SRCRB4D, the median seed-adjusted z-score was inactive: -0.0568. With ACAUAGUAAAGACUUUCUATT against PIGA the median seed-adjusted z-score was inactive: -0.0514. With CCUUCAGGGUUGUACUGAATT against NPR1 the median seed-adjusted z-score was inactive: -0.823. In the case of ACACGGAGAAUAUUCUGAATT against CACNG7, the median seed-adjusted z-score is reported as inactive: -0.403. For AGGUGCACAUGGUACUACATT against RPUSD3, the median seed-adjusted z-score was inactive: 0.303. For GCAGCGGUAUGGGAAAAGATT against PYY, the median seed-adjusted z-score was inactive: 0.437. For CCUAUGACCUAGACUAUUATT against GPR1, the median seed-adjusted z-score was inactive: 0.0609. With CGUCCUUUGUGGAGACCAATT against PLCB3 the median seed-adjusted z-score was inactive: 0. In the case of CUCAUAAACUUGCUAUGGATT against PNPT1, the median seed-adjusted z-score is reported as inactive: 0.0729. With AGUUCAAGGGCAUCAAGAATT against GTF2F1 the median seed-adjusted z-score was inactive: -0.556. With GCAUCCCGCAGGCAAUCUUTT against ONECUT3 the median seed-adjusted z-score was inactive: -0.653. In the case of GACGGAGAAUUCUAUGAAATT against FSTL5, the median seed-adjusted z-score is reported as inactive: -0.881. For CGGUUAAAGAAAACGAUGATT against FAHD1, the median seed-adjusted z-score was inactive: -0.157.
